In paper PMC11443168:
Residue numbers refer to the chain shown, from its start. These are yes or no findings as the source states them, for the method shown. For some of these results: Binding seen in cells or lysates may run through a third protein. Some results given as binding are weak or reduced against the parent protein; the word gives no strength. Tags and fused reporters may be left off the sequences shown.

Legend:
[1] = molecular target: T1, TMX5/TXNDC15, V5-tagged (TMX5-V5 WT) (UniProt Q96J42); assay: co-IP; V5-TMX5 or V5-TMX5 C220A immunoisolated with anti-V5 beads from HEK293 lysates (RIPA, 20 mM NEM); non-reducing and reducing SDS-PAGE; Western blot for endogenous PDI, ERp57, ERp44
T1 sequence: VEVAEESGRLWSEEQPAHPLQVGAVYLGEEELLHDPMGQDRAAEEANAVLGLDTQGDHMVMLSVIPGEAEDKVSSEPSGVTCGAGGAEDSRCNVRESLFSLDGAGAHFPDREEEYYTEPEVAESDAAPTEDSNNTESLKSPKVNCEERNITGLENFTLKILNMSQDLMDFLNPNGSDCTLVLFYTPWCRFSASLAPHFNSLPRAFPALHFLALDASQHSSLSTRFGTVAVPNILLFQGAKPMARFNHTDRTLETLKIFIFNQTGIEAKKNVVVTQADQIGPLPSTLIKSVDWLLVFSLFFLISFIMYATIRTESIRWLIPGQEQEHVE

TMX5_(C220A), V5-tagged [2] = molecular target: T2, TMX5_(C220A), V5-tagged (UniProt Q96J42); assay: as above
T2 sequence: T1 sequence with C188A

[3] = molecular target: T1, TMX5/TXNDC15, V5-tagged (TMX5-V5 WT); assay: co-IP; HEK293 cells co-expressing V5-tagged TMX5 (or cysteine mutants) and HA-tagged ERp44 (or C29S); immunoisolation with anti-V5 antibodies (TMX5 as bait), non-reducing/reducing SDS-PAGE, Western blot with anti-HA
TMX5_(C114A), V5-tagged = molecular target: T3, TMX5_(C114A), V5-tagged (UniProt Q96J42); assay: as above
T3 sequence: T1 sequence with C82A

TMX5_(C124A), V5-tagged = molecular target: T4, TMX5_(C124A), V5-tagged (UniProt Q96J42); assay: as above
T4 sequence: T1 sequence with C92A

TMX5_(C177A), V5-tagged = molecular target: T5, TMX5_(C177A), V5-tagged (UniProt Q96J42); assay: as above
T5 sequence: T1 sequence with C145A

TMX5_(C210A), V5-tagged = molecular target: T6, TMX5_(C210A), V5-tagged (UniProt Q96J42); assay: as above
T6 sequence: T1 sequence with C178A

TMX5_(C220A), V5-tagged [4] = molecular target: T2, TMX5_(C220A), V5-tagged; assay: as above
[5] = molecular target: T1, TMX5/TXNDC15, V5-tagged (TMX5-V5 WT); assay: non-reducing SDS-PAGE and Western blot of mixed disulfides; post-nuclear fractions of HEK293 cells co-transfected with V5-tagged TMX5 or TMX5 C220A and HA-tagged ERp44 or ERp44 C29S; no immunoprecipitation; anti-V5 blot in non-reducing and reducing conditions; TMX5-ss-ERp44 band
TMX5_(C220A), V5-tagged [6] = molecular target: T2, TMX5_(C220A), V5-tagged; assay: as above

Measured: binding

B1: endogenous ERp44 (protein, UniProt Q9BS26 30-406)
chain: EITSLDTENIDEILNNADVALVNFYADWCRFSQMLHPIFEEASDVIKEEFPNENQVVFARVDCDQHSDIAQRYRISKYPTLKLFRNGMMMKREYRGQRSVKALADYIRQQKSDPIQEIRDLAEITTLDRSKRNIIGYFEQKDSDNYRVFERVANILHDDCAFLSAFGDVSKPERYSGDNIIYKPPGHSAPDMVYLGAMTNFDVTYNWIQDKCVPLVREITFENGEELTEEGLPFLILFHMKEDTESLEIFQNEVARQLISEKGTINFLHADCDKFRHPLLHIQKTPADCPVIAIDSFRHMYVFGDFKDVLIPGKLKQFVFDLHSGKLHREFHHGPDPTDTAPGEQAQDVASSPPESSFQKLAPSEYRYTLLRDRDEL
binds: [1] | TMX5_(C220A), V5-tagged [2]

B2: HA-tagged ERp44 (ERp44wt) (protein, UniProt Q9BS26 30-406)
chain: B1 chain
not listed: [1] | TMX5_(C220A), V5-tagged [2]
binds: all other assays above
